Assay results published in publication PMC6775319.
These are yes or no findings as the source states them, for the method shown. Binding seen in cells or lysates may run through a third protein.

By UniProt entry, the sequences of proteins in these tests, tags left out.
UniProt P15924: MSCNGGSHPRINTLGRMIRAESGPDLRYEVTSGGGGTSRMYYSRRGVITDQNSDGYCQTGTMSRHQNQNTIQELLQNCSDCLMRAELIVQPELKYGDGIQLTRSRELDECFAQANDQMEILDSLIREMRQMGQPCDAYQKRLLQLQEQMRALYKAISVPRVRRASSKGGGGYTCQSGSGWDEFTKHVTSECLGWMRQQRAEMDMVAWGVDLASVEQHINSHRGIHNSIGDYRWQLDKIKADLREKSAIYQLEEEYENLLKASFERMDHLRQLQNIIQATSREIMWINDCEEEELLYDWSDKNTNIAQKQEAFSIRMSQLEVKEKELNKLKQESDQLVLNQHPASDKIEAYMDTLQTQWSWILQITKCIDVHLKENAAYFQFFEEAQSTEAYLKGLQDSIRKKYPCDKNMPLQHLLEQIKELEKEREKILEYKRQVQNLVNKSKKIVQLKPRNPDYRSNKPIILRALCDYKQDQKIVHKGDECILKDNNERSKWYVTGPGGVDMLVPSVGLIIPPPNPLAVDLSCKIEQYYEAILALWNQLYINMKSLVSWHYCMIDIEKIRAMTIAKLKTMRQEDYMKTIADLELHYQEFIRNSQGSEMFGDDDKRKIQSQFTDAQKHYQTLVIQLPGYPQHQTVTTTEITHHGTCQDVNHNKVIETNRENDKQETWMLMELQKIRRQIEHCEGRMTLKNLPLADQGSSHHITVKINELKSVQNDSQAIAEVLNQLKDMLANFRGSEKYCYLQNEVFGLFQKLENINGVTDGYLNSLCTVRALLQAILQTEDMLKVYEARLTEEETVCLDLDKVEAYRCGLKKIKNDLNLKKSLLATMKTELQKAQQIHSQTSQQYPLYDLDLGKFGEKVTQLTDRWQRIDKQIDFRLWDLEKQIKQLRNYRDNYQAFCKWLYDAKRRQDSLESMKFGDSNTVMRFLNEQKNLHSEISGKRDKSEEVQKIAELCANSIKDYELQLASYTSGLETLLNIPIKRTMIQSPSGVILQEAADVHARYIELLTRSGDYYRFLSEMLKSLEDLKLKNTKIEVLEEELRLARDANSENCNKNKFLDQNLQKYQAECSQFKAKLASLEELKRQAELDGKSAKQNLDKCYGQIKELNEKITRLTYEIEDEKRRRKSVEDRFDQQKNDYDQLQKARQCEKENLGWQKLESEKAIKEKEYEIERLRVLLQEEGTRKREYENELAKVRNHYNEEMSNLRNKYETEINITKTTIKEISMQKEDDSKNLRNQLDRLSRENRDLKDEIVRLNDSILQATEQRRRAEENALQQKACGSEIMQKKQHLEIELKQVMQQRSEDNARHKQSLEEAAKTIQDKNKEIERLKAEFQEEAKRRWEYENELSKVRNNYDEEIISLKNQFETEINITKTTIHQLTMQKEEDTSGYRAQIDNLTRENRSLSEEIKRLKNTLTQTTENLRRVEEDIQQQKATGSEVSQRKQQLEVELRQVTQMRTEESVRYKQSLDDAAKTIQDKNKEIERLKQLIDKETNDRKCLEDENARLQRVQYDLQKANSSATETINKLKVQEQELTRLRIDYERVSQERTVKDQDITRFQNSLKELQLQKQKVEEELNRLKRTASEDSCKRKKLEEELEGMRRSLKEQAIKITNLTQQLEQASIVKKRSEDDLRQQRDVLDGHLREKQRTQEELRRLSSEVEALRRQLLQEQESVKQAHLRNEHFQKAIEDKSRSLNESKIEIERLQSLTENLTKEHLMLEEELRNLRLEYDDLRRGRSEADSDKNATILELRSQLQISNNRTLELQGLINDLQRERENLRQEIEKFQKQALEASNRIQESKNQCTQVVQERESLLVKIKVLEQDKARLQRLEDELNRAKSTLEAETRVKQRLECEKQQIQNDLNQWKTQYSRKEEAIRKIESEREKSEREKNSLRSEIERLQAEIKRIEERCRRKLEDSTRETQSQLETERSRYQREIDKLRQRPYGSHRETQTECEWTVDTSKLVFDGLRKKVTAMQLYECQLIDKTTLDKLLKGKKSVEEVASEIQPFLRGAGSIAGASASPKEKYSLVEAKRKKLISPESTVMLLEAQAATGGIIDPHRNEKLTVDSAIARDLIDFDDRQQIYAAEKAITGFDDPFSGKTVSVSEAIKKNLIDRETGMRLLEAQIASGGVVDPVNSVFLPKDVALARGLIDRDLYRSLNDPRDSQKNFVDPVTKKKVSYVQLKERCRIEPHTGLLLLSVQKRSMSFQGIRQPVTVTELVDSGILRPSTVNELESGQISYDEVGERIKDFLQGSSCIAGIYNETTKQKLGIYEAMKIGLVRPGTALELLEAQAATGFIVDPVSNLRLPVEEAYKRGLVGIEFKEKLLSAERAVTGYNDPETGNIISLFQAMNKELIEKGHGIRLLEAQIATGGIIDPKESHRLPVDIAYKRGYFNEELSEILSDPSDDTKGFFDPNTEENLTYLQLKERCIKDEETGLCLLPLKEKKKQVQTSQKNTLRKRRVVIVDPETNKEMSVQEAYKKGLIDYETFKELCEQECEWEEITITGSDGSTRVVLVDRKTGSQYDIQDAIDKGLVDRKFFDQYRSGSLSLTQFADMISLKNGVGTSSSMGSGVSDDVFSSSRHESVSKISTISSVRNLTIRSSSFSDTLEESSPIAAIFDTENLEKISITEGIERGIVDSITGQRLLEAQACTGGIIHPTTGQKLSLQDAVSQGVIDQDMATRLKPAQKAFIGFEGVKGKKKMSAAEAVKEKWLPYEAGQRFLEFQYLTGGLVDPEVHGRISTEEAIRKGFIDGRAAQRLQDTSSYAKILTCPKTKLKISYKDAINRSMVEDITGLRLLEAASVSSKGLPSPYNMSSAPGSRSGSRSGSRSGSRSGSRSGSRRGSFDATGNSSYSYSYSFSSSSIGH
UniProt P54274: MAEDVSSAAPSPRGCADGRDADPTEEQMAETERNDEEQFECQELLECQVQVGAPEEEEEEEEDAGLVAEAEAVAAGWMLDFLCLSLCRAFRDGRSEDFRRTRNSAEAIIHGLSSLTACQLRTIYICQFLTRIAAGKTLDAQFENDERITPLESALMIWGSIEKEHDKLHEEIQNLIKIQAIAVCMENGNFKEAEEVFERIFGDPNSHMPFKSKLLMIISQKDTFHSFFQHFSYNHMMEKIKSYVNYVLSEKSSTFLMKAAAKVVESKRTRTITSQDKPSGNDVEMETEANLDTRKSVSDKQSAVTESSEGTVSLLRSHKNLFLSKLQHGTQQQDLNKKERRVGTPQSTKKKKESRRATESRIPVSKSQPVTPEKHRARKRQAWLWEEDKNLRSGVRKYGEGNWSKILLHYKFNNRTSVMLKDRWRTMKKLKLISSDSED

Molecular target: Desmoplakin (DSP) (human (endogenous in HEK293 and MCF-7)) (UniProt P15924)
Test: co-IP; endogenous proteins in HEK293 and MCF-7 cells; which protein was precipitated is not given; knockdown of DSP as control

binding: no binding
Substance: TRF1 (from UniProt P54274 1-439)
